The values are deposited in ChEMBL (CHEMBL3988442, “University of Dundee, Small-Polar-MMV Screening Library” (2021)).

Mtb growth Cornell: 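Whole-cell assay for inhibitors of Mycobacterium tuberculosis growth, labelled Cornell in the record; the read-out is not stated. The concentration is filed as 10 mM, unlikely as a test dose, so the dose is not known. The record gives no direction; compounds strong in two other growth screens of this library score well above the rest, so higher reads as stronger inhibition. Size under these conditions: about 53,000 compounds, about 900 of them at 50% or above in at least one test.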
Mtb heat-shock: 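Assay on Mycobacterium tuberculosis, filed only as a heat shock assay from Cornell; the read-out is not stated. The concentration is filed as 10 mM, unlikely as a test dose, so the dose is not known. Higher reads as stronger inhibition (inferred: compounds with an IC50 in retests scored well above the rest). About 69,000 compounds were tested under these conditions; 1.4% (about 930) showed 50% or more at least once.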

Values are the deposited “Percent Effect”, in %.
The controls that fix the scale are not given in the record; negative values are as filed.
This is an unselected part of the compounds tested.
A dash means the value is not listed here; it may have been measured.

| # | structure | Mtb growth Cornell | Mtb heat-shock |
|---|---|---|---|
| 1 | `COCc1cn(C2CCN(C(=O)Cc3ccsc3)CC2)nn1` | 8.698 | -11.39 |
| 2 | `COc1ccccc1CCC(=O)N1CCCC(OCc2cccnc2)C1` (stereo unspecified) | -21.64 | -46.19 |
| 3 | `CCC(NC(=O)c1ccco1)c1nc(C(F)(F)F)cs1` (stereo unspecified) | 24.28 | -21.75 |
| 4 | `Cc1ncoc1C(=O)N1CC[C@@H](O)[C@@H](O)[C@H](N2CCC(F)(F)CC2)C1` | 24.83 | 2.498 |
| 5 | `CCN(CC)C(C)CNC(=O)c1cccnc1Oc1cccnc1` (stereo unspecified) | 7.351 | -12.86 |
| 6 | `CC(NC(=O)CSCC(N)=O)c1ccccc1Oc1ccccc1` (stereo unspecified) | - | -18.41 |
| 7 | `[H][C@@]12CS(=O)(=O)C[C@]1([H])N(C(=O)c1cc(C(F)(F)F)n[nH]1)CCN2CC` | 4.679 | 15.93 |
| 8 | `COc1ccc(-c2nc(CN3CCOCS3(=O)=O)c(C)o2)cc1` | 24.85 | -4.223 |
| 9 | `CC(=O)N1CCC(C(=O)NC(C)c2cccc(OC(F)F)c2)CC1` (stereo unspecified) | 4.112 | -0.8491 |
| 10 | `COCc1cc(N(C)CCc2c(C)n[nH]c2C)ncn1` | -16.85 | -3.421 |
| 11 | `Cc1cc(C)nc(N2Cc3cnn(Cc4ccc(F)cc4)c3C2)n1` | 1.875 | -1.719 |
| 12 | `[H][C@]12CC[C@]([H])(CN(Cc3ccccc3)C1)N(Cc1snnc1C)C2` | 29.5 | 18.45 |
| 13 | `Cc1cnccc1N1CCN(C(=O)CCCN2CCCCC2)CC1` | -6.864 | -8.677 |
| 14 | `Cc1ccccc1CC(=O)N(C)CC1(O)CCCN(c2ccccn2)C1` (stereo unspecified) | -72.02 | -7.749 |
| 15 | `O=C(NCCC(=O)N1CCCc2ccccc21)c1c(O)cc(F)cc1F` | - | -20.41 |
| 16 | `COCCN(C)CCN1CC2(CCN(C3CCCOC3)CC2)OC1=O` (stereo unspecified) | -24.11 | -9.905 |
| 17 | `Cc1ccccc1C1(C(=O)NCCN2CCC(C)CC2)CCOCC1` | - | -17.04 |
| 18 | `O=C(Nc1ccccn1)N(CCO)Cc1ccsc1` | - | 5.938 |
| 19 | `c1csc(CN2CCc3nc(N4CCOCC4)nc(NC4CC4)c3C2)n1` | -40.07 | 3.135 |
| 20 | `COc1ccc(CN2CC(=O)N(c3ccc(C)cc3)CC2C)cc1O` (stereo unspecified) | 5.464 | -4.116 |
| 21 | `CCCC(NC(=O)c1ccccc1Br)c1nnn[nH]1` (stereo unspecified) | 4.739 | -20.15 |
| 22 | `Cc1nc(COCC2CN(C(N)=O)Cc3nccn3C2)cs1.O=C(O)C(F)(F)F` (stereo unspecified) | 12.62 | -0.7889 |
| 23 | `COCCN(c1ccncc1)S(=O)(=O)c1cc(C)cc(F)c1` | 18.47 | -30.18 |
| 24 | `COCCc1noc(CNC2CCc3nc(C(C)C)nn3C2)n1` (stereo unspecified) | - | 1.945 |
| 25 | `COCCNC(=O)CCn1ncc2c(Cl)cccc21` | - | -6.315 |
| 26 | `O=C1Nc2ccccc2CN(CC2CCCC2)C12CCNC2` (stereo unspecified) | - | 13.41 |
| 27 | `O=C(C1CCOC1)N1CCN(CC(F)(F)F)c2ccccc21` (stereo unspecified) | 13.29 | 9.63 |
| 28 | `O=C(O)C(F)(F)F.[H][C@]12CC[C@@]3(N=C(CC)NC3=O)[C@@]1([H])CN(CC(C)C)C2` | 18.02 | -6.706 |
| 29 | `CC(C)(C)NC(=O)Cn1nc(C2CC2)cc(C(F)(F)F)c1=O` | -27.52 | 14.9 |
| 30 | `CC(=O)N1CCCC(C(=O)NCCc2ccc(F)c(Br)c2)C1` (stereo unspecified) | 8.714 | 3.388 |
| 31 | `COc1cccc(CCC2CCCN(Cc3ncc[nH]3)C2)c1` (stereo unspecified) | -19.68 | -3.256 |
| 32 | `CC(C)NC(=O)N[C@H]1C[C@@H](Cc2cc(CN3CCOCC3)on2)C1(C)C` | 20.49 | 2.301 |
| 33 | `COCc1c(C(=O)N2CCCC(C(=O)c3nccn3C)C2)noc1C` (stereo unspecified) | -22.71 | 11.09 |
| 34 | `COCCCNC(=O)CCn1ncc2c(Cl)cccc21` | - | 10.21 |
| 35 | `COc1cccc(F)c1CN1CCC(c2nccc(C)n2)C1` (stereo unspecified) | 47.68 | -2.375 |
| 36 | `Cc1cc(C)c(CNC(=O)N2CCC(N3CCCC3)CC2)c(=O)[nH]1` | 9.951 | -11.4 |
| 37 | `COCCNC(=O)CN1CCN(c2nc3cc(C)ccc3o2)CC1` | 9.748 | -36.65 |
| 38 | `CN1C(=O)CO[C@H](c2ccc(NC(=O)Nc3ccccc3)cc2)[C@H]1CO` | 13.57 | -6.779 |
| 39 | `CC(C)CN1Cc2c(C(=O)N(C)C)ncn2-c2ccccc2S1(=O)=O` | -10.19 | 12.19 |
| 40 | `Cn1ccc(CN2CCCC23CCNCC3)n1` | -51.1 | -17.56 |
| 41 | `N#Cc1cccc(CNCCNC(=O)Cc2cccc(F)c2)c1` | -29.4 | -22.89 |
| 42 | `Cc1nn(C)c(Cl)c1C1CCCN1CC(=O)N1CCOCC1` (stereo unspecified) | 6.134 | 2.315 |
| 43 | `CN(Cc1ccsc1)C(=O)CN1CCCCC1Cn1cccn1` (stereo unspecified) | -9.761 | 21.2 |
| 44 | `Cc1ccccc1SCC(=O)NS(=O)(=O)c1ccc2c(c1)OCCO2` | - | -5.164 |
| 45 | `O=C(O)C(F)(F)F.O=C1CC2(CCCCN2C(=O)c2ccco2)CN1c1cccnc1` (stereo unspecified) | -31.91 | -16.88 |
| 46 | `Cc1nc(COc2ccc(CNCCn3cccn3)cc2)cs1` | -37.91 | -21.22 |
| 47 | `O=C(c1ccn(-c2cccc(F)c2)n1)N1CCN(CCO)CC1` | 12.42 | -11.43 |
| 48 | `Cc1ccc(CNS(=O)(=O)CC2=NC(=O)n3cccc3C2=O)cc1` | - | 20.65 |
| 49 | `CCc1ccc(-c2cc(C(F)(F)F)nc(N3CCC(N)CC3)n2)cc1` | 105.7 | 103 |
| 50 | `O=C1N(c2ccc(Br)cc2)Cc2n[nH]c(=O)n21` | 7.41 | -11.91 |
| 51 | `COc1cccc(CNC(=O)C(C)n2ccnc2C(C)C)c1OC` (stereo unspecified) | -7.723 | -27.01 |
| 52 | `COc1ccc(C(=O)N2C[C@@H](C)[C@@](C)(O)C2)cc1N1CCOCC1` | 2.065 | 5.225 |
| 53 | `CN1CCN(CC[C@@H]2CC[C@H](O)[C@@H](C(=O)Nc3ccccc3)O2)CC1` | -0.3751 | -9.153 |
| 54 | `CCN(C(c1cccnc1)c1ccc(F)cc1F)S(C)(=O)=O` (stereo unspecified) | -13.16 | -24.65 |
| 55 | `CCN(C(=O)CSc1ccc(C(F)(F)F)cn1)C1CC1` | 11.01 | -4.413 |
| 56 | `O=C(O)C(F)(F)F.[H][C@@]12CCCO[C@]1([H])[C@H](NC(=O)c1cnn(C)c1)CN2Cc1ccc(F)cc1` | 20.31 | -62.08 |
| 57 | `O=C(C1SCCc2sccc21)N1CC(O)C1` (stereo unspecified) | -11.59 | -10.5 |
| 58 | `O=C(NCCNc1ncccn1)C1CC(=O)N(CC(F)(F)F)C1` (stereo unspecified) | -19.83 | 21.49 |
| 59 | `O=C(Nc1ccccc1N1CCOC1=O)N1CCSCC1` | - | -8.912 |
| 60 | `O=C(O)[C@@H]1CN(Cc2cc3c(cc2Cl)OCO3)C[C@H]1C1CC1` | 9.605 | -5.985 |
| 61 | `CS(=O)(=O)CCOCCNc1ccc2ccc(F)cc2n1` | 7.722 | -13.19 |
| 62 | `Cc1cccn2c(CNC(C)CO)cnc12` (stereo unspecified) | -18.82 | 16.23 |
| 63 | `CCCc1noc(C2CCN(C(=O)CCn3nc(C)cc3C)CC2)n1` | - | 1.802 |
| 64 | `CC(=O)c1ccc(-n2c(C)cn(CCC(=O)NC(N)=O)c2=O)cc1` | 30.44 | 9.017 |
| 65 | `Cc1nn(C)c(C)c1CCC(=O)N1CCCOC(Cn2cccn2)C1` (stereo unspecified) | -23.05 | -27.23 |